The list shows only some results of the screen, not a fair sample: it gathers tests that were run many times, whatever their T/C, doses with no T/C, and many T/C values between a quarter and a half above the control. Further doses and runs are listed elsewhere. T/C: endpoint of the treated group in % of that of the vehicle group. Some doses have a count of surviving animals in place of a T/C: the source files T/C as zero there, which appears to mark a toxic dose or a test without result, not a measured value. Some doses without a T/C left all or most animals alive at the check, yet need not have been tolerated: the source hardly ever lists a survival T/C far under the control, and the zero likely stands for such cases as well. Survivors were counted at the toxicity check, usually on the fifth day, unless a day is given; later deaths do not show. Schedule codes are those of the source, taken here to give the interval after Q, in days (D) or hours (H), and the number of doses after X. Some doses were run more than once; the results are listed from low to high. For survival time, the PubChem record calls one and a half times the control and up active, and a quarter to a half above the control has no call in these data; cut-offs in other NCI protocols can differ.
Test system: P388 leukemia ip, CD2F1 mice, survival T/C
Assay: NCI In Vivo Anticancer Drug Screen. Data for tumor model P388 Leukemia (intraperitoneal) in CD2F1 (CDF1) mice
Conditions: T/C endpoint: median survival time, higher T/C = longer survival
[1] = dose: 50.0 mg/kg/injection, schedule: Q01DX005 (ip), vehicle: saline with Tween-80
[2] = dose: 200.0 mg/kg/injection, schedule: Q01DX005 (ip), vehicle: saline with Tween-80
[3] = dose: 200.0 mg/kg/injection, schedule: Q01DX009 (ip), vehicle: Klucel (hydroxypropylcellulose) (HPC)
[4] = dose: 6.25 mg/kg/injection, schedule: Q01DX009 (ip), vehicle: Klucel (hydroxypropylcellulose) (HPC)
[5] = dose: 25.0 mg/kg/injection, schedule: Q01DX009 (ip), vehicle: Klucel (hydroxypropylcellulose) (HPC)

Q: `Clc1nc[nH]c1Cl` was tested. Which survivor count (dose: 200.0 mg/kg/injection, schedule: Q01DX009 (ip), vehicle: saline with Tween-80) did it give?
A: 0 of 6

Q: Which survivor count (dose: 400.0 mg/kg/injection, schedule: Q01DX001 (ip), vehicle: saline) does the source give for `NC1CCC2CCCCC2C1` (centres undefined) here?
A: 1 of 6

Q: With `O=C1CCC(=O)c2c1c(O)c1c(O)ccc(O)c1c2O` as the compound, how does the survivor count [1] read?
A: 5 of 5

Q: What about the survivor count (dose: 100.0 mg/kg/injection, schedule: Q01DX005 (ip), vehicle: saline with Tween-80) of the same compound?
A: 5 of 5

Q: What about the survivor count [2] of the same compound?
A: 5 of 5

Q: Which survivor count (dose: 240.0 mg/kg/injection, schedule: Q01DX005 (ip), vehicle: saline with Tween-80) does the source give for `CC(O[Si](C)(C)C(C)(C)C)C(=O)Sc1ccccn1` (centres undefined) here?
A: 3 of 6

Q: With `FC(F)(F)/C([S-])=C(/[S-])C(F)(F)F.FC(F)(F)/C([S-])=C(/[S-])C(F)(F)F.FC(F)(F)/C([S-])=C(/[S-])C(F)(F)F.FC(F)(F)/C([S-])=C(/[S-])C(F)(F)F.[Co+3].[Co+3]` as the compound, how does the survivor count (dose: 75.0 mg/kg/injection, schedule: Q04DX003 (ip), vehicle: other) read?
A: 6 of 6

Q: How did the T/C (dose: 100.0 mg/kg/injection, schedule: Q04DX003 (ip), vehicle: saline) turn out when `CC(=O)CC(C)=NCCN=C(C)CC(C)=O.C[CH2][Sn][CH2]C` was run?
A: 142 % of control

Q: And the survivor count (dose: 200.0 mg/kg/injection, schedule: Q04DX003 (ip), vehicle: saline)?
A: 0 of 6

Q: And the survivor count (dose: 400.0 mg/kg/injection, schedule: Q04DX003 (ip), vehicle: saline)?
A: 0 of 6

Q: For `Fc1ccc2nc3ccccc3c(SCCCCCCSc3c4ccccc4nc4ccc(F)cc34)c2c1`, which survivor count (dose: 240.0 mg/kg/injection, schedule: Q01DX005 (ip), vehicle: Klucel (hydroxypropylcellulose) (HPC)) is on record?
A: 6 of 6

Q: How did the survivor count (dose: 40.0 mg/kg/injection, schedule: Q01DX005 (ip), vehicle: Klucel (hydroxypropylcellulose) (HPC)) turn out when `CC1=C2CC(C)(C)/C=C\C(=O)/C(C)=C\C3=CCCC3(O2)C1=O` (centres undefined) was run?
A: 0 of 5

Q: And the survivor count (dose: 80.0 mg/kg/injection, schedule: Q01DX005 (ip), vehicle: Klucel (hydroxypropylcellulose) (HPC))?
A: 0 of 5

Q: How did the survivor count (dose: 400.0 mg/kg/injection, schedule: Q04DX002 (ip), vehicle: saline) turn out when `COc1ccc2c(c1)N(C(=O)CNC(C)(C)C)c1ccccc1S2` was run?
A: 1 of 6

Q: How did the survivor count (dose: 50.0 mg/kg/injection, schedule: Q01DX009 (ip), vehicle: other) turn out when `CNC(=S)NNc1ccc(C)cc1` was run?
A: 6 of 6

Q: With `CCCCCCCCCCCCCCCC(=O)NCCO` as the compound, how does the survivor count (dose: 50.0 mg/kg/injection, schedule: Q04DX003 (ip), vehicle: saline with Tween-80) read?
A: 6 of 6

Q: Which survivor count (dose: 50.0 mg/kg/injection, schedule: Q01DX005 (ip), vehicle: Klucel (hydroxypropylcellulose) (HPC)) does the source give for `O=C1c2ccccc2C(C2c3ccccc3C(=O)c3cc(Br)ccc32)c2ccc(Br)cc21` (centres undefined) here?
A: 6 of 6

Q: What about the survivor count (dose: 200.0 mg/kg/injection, schedule: Q01DX005 (ip), vehicle: Klucel (hydroxypropylcellulose) (HPC)) of the same compound?
A: 5 of 6

Q: With `Cn1c(=O)c2c(-c3ccc(Cl)cc3)onc2n(C)c1=O` as the compound, how does the survivor count [3] read?
A: 2 of 6

Q: How did the T/C [4] turn out when `COc1cc2c(c(OC)c1OC)-c1ccc(NCc3ccccc3)c(=O)cc1[C@@H](NC(C)=O)CC2` was run?
A: 125 and 127 % of control

Q: And the T/C (dose: 12.5 mg/kg/injection, schedule: Q01DX009 (ip), vehicle: Klucel (hydroxypropylcellulose) (HPC))?
A: 148 % of control

Q: What about the survivor count [5] of the same compound?
A: 1 of 6, 3 of 6, 4 of 6

Q: `C=CCn1c2c(c3ccccc3c1=O)C(=O)c1ccccc1-2` was tested. Which survivor count [1] did it give?
A: 5 of 5

Q: What about the survivor count [2] of the same compound?
A: 5 of 5

Q: How did the survivor count (dose: 200.0 mg/kg/injection, schedule: Q01DX001 (ip), vehicle: Klucel (hydroxypropylcellulose) (HPC)) turn out when `OCc1c(Cl)nc2sccn12` was run?
A: 1 of 6

Q: How did the survivor count (dose: 240.0 mg/kg/injection, schedule: Q01DX005 (ip), vehicle: saline) turn out when `COC1(CO)C(=O)N(C)CC(=O)N1C` (centres undefined) was run?
A: 1 of 6

Q: How did the survivor count (dose: 75.0 mg/kg/injection, schedule: Q01DX009 (ip), vehicle: saline) turn out when `Oc1ccccc1C=NCCN1CC1.Oc1ccccc1C=NCCN1CC1.[Co+2]` was run?
A: 0 of 6

Q: What about the survivor count (dose: 150.0 mg/kg/injection, schedule: Q01DX009 (ip), vehicle: saline) of the same compound?
A: 1 of 6

Q: And the survivor count (dose: 300.0 mg/kg/injection, schedule: Q01DX009 (ip), vehicle: saline)?
A: 0 of 6

Q: How did the survivor count [4] turn out when `CCCCCCCCC(=O)c1c(OC)oc(/C=N/O)cc1=O` was run?
A: 6 of 6

Q: And the survivor count [5]?
A: 6 of 6

Q: What about the survivor count (dose: 50.0 mg/kg/injection, schedule: Q01DX009 (ip), vehicle: Klucel (hydroxypropylcellulose) (HPC)) of the same compound?
A: 6 of 6

Q: What about the survivor count (dose: 100.0 mg/kg/injection, schedule: Q01DX009 (ip), vehicle: Klucel (hydroxypropylcellulose) (HPC)) of the same compound?
A: 6 of 6

Q: What about the survivor count [3] of the same compound?
A: 6 of 6

Reference: PubChem BioAssay AID330 (DTP/NCI, 2004)
